Assay [1] addresses recombinant human DLL4 (human) (UniProt Q9NR61). Briefly: SPR binning, hDLL4 captured by anti-DLL4 Fab.
Assay [2] has as its target recombinant human DLL4 (C-terminally His-tagged extracellular domain, R&D Systems) (human) (UniProt Q9NR61). Briefly: binding ELISA on recombinant human DLL4, OD 450 nm. (An ELISA detects its analyte on a solid surface through an enzyme-linked reagent.)
For assay [3] the target is unchanged. Kind of assay: binding ELISA on coated recombinant human DLL4 (Example 5.8, Example 7), OD 450 nm.
Assay [4] addresses human DLL4 overexpressed on cells (human) (UniProt Q9NR61). Kind of assay: FACS titration on HEK293-hDLL4 cells, MCF.
Assay [5] has as its target cynomolgus DLL4 overexpressed on cells (cynomolgus). Briefly: FACS titration on HEK293-cDLL4 cells, MCF.

Amino acid sequences for entries named in this document (tags omitted). A change or cut given only in a name is not applied to a line headed by its entry.
UniProt Q9NR61: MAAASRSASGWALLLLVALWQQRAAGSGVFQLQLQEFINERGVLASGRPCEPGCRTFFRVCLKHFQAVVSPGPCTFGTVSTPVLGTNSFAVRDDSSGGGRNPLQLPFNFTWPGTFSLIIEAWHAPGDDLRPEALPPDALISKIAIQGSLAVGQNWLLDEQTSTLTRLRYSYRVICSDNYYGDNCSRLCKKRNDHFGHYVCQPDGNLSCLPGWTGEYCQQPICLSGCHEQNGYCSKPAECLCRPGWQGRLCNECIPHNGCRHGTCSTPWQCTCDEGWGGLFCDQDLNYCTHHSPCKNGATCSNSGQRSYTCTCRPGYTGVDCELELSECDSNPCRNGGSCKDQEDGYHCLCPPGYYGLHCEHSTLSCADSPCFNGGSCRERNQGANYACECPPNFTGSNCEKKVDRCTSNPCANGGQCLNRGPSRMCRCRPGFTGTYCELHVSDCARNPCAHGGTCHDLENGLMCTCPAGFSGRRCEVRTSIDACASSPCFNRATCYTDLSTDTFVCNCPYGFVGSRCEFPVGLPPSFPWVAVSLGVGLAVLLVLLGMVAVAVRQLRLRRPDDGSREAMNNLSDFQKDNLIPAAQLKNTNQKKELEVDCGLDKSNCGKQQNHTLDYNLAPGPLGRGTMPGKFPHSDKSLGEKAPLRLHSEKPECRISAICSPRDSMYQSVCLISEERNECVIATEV

Residue numbers refer to the chain shown, from its start. No constants are given. Whether binding was seen depends on the method and setting. Some results given as binding are weak or reduced against the parent protein; the word gives no strength.

Here are results for eleven molecules from patent publication US20140120095A1.

B1: DLLBII6B11 (VHH)
VHH: EVQLVESEGGLVQAGGSLRLSCAASGSTFSSYAMGWYRQAPGKQRELVAVISNGGITNYPNSVKGRFTISRDNAKNTVYLQMNSLKPEDTAVYYCFYSGSYYYPTDVHEYDYWGQGTQVTVSS
B1: the binding result in assay [1] was “binds”.

B2: DLLBII129D08 (VHH, not shown: small tags and cut ends)
VHH: EVQLVESGGGLVQAGGSLRLSCAASGRTFSSYAMAWYRQAPGKEREYVAAIRWSGGTAYYADSVQGRFTISRDNAKNTVYLQMNSLKPEDTAVYYCANRAPDTRLEPYLYDYWGQGTQVTVSS
On to B2, for which the binding result in assay [2] is recorded as “binds”.

B3: DLLBII101G08 (VHH, not shown: small tags and cut ends)
VHH: B2 VHH with Y37F, Y47F, P101A, E106G, L109E
In the case of B3, the binding entry in assay [2] is given as “binds”.

B4: DLLBII129E11 (VHH, not shown: small tags and cut ends)
VHH: B2 VHH with E106R
B4: the binding result in assay [2] was “binds”.

B5: DLLBII104G01 (VHH)
VHH: EVQLVESGGGLVQAGGSLRLSCAASGFTFDDYAIGWFRQAPGKEREGVSCISSSDGSTYYADSVKGRFTISSDNAKNTVYLQMNSLKPEDTAVYYCATAWCDSSWYRSFVGYWGQGTQVTVSS
Take B5: the binding result in assay [1] is listed as “binds”.

B6: DLLBII115A05 (VHH, not shown: small tags and cut ends)
VHH: EVQLVESGGGLVQPGGSLRLSCAASGFTFGSYDMSWVRRSPGKGPEWVSSINSGGGSTYYADFVKGRFTISRDNAKNTLYLQMNSLKPEDTAVYYCAADRYIRARQGDYWGAYEYDYWGQGTQVTVSS
Consider B6, for which the binding result in assay [3] is on record as “binds”.

B7: DLLBII133A09 (VHH, not shown: small tags and cut ends)
VHH: B6 VHH with S50A, F63Y, R103W, D108E, E114A
On to B7, for which the binding result in assay [3] is listed as “binds”.

B8: DLLBII136C07 (VHH, not shown: small tags and cut ends)
VHH: B6 VHH with F63Y, R103W, D108E
For B8, the binding entry in assay [3] is reported as “binds”.

B9: DLLBII133G05 (VHH, not shown: small tags and cut ends)
VHH: B6 VHH with S50A, A61T, F63Y, R103W, D108E, E114A
As to B9, the binding entry in assay [3] is recorded as “binds”.

B10: DLLBII015 (VHH, not shown: small tags and cut ends)
VHH: B6 VHH with F29I, S50A, F63Y, R103W, D108E, E114A
Regarding B10, the binding entry in assay [3] is on record as “binds”.

B11: DLLBII56H08 (VHH)
VHH: EVQLVESGGGLVQPGGSLRLSCAASGFTFDDYAIGWFRQAPGKEPEEISCISSSGGITYYADSVKGRFTISRDNAKNTVYLQMNSLKPEDTAVYYCATPGIAACRGIHYTGQGTQVTVSS
In the case of B11, the binding result in assay [4] and in assay [5] was “binds” each time.
